The text below walks through data of paper PMC10432564, “Pharmacological perturbation of the phase-separating protein SMNDC1” (Nature Communications, 2023).

By UniProt entry, the sequences of proteins in these tests, tags left out.
UniProt Q9QX47: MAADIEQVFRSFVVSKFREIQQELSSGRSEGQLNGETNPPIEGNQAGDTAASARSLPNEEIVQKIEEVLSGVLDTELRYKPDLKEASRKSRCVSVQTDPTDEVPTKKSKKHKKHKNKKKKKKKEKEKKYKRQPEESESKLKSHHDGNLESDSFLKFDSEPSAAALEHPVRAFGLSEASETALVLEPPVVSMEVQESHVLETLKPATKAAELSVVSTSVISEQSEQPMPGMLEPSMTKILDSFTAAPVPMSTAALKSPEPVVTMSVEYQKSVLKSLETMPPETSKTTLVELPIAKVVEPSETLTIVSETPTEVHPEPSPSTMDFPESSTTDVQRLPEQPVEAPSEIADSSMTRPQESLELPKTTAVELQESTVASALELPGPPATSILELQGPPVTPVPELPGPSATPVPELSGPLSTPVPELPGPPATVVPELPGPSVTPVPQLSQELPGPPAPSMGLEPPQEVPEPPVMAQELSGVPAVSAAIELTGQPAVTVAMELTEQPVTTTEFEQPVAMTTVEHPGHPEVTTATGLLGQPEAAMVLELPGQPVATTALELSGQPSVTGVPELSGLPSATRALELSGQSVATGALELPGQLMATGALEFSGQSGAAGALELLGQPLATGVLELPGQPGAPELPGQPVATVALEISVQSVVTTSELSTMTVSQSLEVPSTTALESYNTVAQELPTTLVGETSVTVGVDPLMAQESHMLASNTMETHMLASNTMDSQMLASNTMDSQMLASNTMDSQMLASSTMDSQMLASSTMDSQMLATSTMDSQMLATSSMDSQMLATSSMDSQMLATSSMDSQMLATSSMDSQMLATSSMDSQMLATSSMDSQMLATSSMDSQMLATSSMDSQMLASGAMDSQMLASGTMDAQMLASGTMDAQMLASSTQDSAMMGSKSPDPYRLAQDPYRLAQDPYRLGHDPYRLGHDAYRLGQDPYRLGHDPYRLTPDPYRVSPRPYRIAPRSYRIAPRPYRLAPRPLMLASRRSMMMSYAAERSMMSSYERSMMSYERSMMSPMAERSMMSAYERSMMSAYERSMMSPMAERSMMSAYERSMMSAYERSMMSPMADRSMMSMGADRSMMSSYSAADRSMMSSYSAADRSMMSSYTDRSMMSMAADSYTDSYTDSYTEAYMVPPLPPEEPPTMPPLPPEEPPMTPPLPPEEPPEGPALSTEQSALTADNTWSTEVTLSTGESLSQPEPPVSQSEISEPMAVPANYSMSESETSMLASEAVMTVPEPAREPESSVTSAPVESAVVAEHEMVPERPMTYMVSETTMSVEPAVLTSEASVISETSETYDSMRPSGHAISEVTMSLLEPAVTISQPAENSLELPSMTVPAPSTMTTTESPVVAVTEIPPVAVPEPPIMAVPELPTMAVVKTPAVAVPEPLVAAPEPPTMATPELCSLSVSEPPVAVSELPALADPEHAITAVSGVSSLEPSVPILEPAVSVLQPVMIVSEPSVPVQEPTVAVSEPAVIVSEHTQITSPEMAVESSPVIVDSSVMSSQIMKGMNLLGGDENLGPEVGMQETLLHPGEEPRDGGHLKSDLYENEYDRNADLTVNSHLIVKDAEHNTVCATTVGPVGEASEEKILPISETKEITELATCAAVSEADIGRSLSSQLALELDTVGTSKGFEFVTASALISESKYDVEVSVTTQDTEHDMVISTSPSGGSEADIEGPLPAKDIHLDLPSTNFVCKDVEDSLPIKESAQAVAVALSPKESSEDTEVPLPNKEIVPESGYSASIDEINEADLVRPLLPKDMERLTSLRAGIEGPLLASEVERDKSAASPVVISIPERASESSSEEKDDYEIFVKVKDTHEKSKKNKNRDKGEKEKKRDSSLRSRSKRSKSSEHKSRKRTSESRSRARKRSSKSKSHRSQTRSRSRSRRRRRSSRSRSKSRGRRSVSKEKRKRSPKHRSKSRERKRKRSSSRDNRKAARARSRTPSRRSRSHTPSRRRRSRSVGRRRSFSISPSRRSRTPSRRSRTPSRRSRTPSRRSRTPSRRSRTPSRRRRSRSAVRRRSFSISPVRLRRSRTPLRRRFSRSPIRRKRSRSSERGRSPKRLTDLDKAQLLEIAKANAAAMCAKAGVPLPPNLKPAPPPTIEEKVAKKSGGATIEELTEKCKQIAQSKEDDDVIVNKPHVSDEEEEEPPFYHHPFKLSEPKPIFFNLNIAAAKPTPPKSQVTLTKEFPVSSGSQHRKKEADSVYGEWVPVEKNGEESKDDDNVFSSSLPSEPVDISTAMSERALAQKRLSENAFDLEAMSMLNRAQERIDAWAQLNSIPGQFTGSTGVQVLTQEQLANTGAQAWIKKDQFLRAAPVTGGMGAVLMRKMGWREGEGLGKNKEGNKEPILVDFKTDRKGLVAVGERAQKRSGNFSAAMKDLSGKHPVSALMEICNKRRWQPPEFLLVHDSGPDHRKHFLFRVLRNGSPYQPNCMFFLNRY
UniProt Q8BTI8: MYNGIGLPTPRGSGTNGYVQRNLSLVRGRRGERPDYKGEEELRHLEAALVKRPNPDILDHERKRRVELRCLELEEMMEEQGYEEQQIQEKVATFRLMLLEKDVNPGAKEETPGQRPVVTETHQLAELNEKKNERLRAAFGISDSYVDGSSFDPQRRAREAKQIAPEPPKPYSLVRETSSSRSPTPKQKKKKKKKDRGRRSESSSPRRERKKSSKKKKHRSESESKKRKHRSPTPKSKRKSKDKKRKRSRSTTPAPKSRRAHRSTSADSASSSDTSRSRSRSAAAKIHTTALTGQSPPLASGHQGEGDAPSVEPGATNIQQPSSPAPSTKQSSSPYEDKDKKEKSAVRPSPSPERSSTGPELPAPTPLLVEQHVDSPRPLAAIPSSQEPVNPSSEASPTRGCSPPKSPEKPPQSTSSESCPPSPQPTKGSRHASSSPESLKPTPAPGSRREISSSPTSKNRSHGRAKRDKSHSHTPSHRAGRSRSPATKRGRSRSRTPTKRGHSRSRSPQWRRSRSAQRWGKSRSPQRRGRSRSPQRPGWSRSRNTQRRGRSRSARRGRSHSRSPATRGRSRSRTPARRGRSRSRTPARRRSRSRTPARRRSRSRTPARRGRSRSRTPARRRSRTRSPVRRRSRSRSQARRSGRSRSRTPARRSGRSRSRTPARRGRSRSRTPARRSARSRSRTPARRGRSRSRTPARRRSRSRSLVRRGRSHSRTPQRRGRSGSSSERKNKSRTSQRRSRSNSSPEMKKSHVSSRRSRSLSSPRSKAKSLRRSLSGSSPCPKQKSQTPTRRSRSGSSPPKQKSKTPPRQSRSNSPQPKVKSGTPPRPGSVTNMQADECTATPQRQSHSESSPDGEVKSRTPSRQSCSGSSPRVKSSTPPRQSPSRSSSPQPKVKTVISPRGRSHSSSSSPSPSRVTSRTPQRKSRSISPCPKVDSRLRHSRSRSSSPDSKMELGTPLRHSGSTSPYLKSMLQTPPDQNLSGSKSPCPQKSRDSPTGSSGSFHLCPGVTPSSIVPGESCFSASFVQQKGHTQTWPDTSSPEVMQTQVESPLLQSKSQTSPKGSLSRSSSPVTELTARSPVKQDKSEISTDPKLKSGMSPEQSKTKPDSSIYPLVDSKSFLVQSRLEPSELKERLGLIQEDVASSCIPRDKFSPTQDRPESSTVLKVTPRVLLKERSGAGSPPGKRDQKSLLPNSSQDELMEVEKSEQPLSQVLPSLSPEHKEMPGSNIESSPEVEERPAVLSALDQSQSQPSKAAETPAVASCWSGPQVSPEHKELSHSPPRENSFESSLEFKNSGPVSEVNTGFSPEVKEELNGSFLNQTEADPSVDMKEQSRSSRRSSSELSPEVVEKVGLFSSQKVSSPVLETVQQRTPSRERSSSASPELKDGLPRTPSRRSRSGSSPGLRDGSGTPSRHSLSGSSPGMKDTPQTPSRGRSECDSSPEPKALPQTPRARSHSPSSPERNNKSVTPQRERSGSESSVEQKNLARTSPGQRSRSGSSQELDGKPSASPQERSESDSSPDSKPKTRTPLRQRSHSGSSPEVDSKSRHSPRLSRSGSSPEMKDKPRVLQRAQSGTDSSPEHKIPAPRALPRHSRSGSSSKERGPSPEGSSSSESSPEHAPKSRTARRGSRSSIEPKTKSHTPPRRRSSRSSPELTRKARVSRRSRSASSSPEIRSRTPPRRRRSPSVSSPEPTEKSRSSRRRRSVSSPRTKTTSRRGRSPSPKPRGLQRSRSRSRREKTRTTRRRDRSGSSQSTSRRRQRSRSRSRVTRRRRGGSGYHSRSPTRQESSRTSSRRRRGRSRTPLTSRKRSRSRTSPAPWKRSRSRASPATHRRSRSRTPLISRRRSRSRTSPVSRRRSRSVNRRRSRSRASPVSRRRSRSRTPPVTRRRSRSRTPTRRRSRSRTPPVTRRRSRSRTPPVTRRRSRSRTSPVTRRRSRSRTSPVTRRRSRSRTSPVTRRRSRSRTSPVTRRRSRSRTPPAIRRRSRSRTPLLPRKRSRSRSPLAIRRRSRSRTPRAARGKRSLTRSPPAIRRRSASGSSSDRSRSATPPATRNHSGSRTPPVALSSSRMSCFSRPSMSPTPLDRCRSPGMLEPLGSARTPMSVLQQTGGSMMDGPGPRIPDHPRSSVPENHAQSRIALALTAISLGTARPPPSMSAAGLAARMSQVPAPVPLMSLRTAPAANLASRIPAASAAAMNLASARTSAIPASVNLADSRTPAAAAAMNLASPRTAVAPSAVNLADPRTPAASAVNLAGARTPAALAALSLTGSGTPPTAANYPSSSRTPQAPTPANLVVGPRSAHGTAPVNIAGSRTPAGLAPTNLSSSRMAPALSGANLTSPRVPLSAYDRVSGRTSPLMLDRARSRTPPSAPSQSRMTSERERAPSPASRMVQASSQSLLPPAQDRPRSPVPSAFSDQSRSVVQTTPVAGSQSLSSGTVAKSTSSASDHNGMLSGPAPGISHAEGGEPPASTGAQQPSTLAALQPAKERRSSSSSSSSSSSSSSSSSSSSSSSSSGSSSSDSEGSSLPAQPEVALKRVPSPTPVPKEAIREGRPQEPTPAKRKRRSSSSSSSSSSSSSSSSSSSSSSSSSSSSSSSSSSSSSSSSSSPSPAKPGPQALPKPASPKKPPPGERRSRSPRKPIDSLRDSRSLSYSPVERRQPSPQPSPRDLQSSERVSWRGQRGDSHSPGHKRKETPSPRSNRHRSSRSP

For assay [1], the target named is T1, APEX2-SMNDC1^FL (UniProt O75940).
T1 sequence: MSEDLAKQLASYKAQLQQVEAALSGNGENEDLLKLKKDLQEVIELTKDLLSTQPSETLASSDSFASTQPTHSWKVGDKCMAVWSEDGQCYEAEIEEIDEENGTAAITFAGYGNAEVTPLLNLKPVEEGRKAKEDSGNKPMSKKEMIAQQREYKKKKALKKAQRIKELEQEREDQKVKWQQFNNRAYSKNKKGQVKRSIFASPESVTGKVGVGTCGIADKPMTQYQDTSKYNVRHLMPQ
Description: proximity labelling; APEX2 fusion stably expressed in cells; 0.5 mM biotin-phenol 30 min, 1 mM H2O2 1 min; streptavidin enrichment, TMT mass spectrometry; compared with APEX2-SMNDC1^TD; cells treated with DMSO or compound 1.

Assay [2] deals with T1, APEX2-SMNDC1^FL. The description is as above. The source holds these as a separate data set.
The target in assay [3] is T1, APEX2-SMNDC1^FL. Description: condition: only cells treated with the inhibitor (compound 1); proximity labelling; as a3, cells treated with the inhibitor (compound 1); biotin-labeled proteins pulled down on streptavidin beads and detected by western blot. On the technique in general: Immunoblotting shows a protein as a band on a membrane.
Assay [4] addresses T1, APEX2-SMNDC1^FL. Description: proximity labelling; APEX2 fusion stably expressed in cells; biotin-labeled proteins pulled down on streptavidin beads and detected by western blot (antibodies against SMNDC1, SFPQ, APEX2); control cells without the inhibitor.

No constants are given. Whether binding was seen depends on the method and setting. In cells and extracts the contact can be indirect. Here binding means that the protein was enriched with, or labelled near, the bait; the list need not be complete. For part of these data: A no says only that the protein was not detected with the bait.

As for SON (from UniProt Q9QX47 1-2444), in the assay with APEX2-SMNDC1^FL [1], the binding result is on record as “binds”.

With SRRM2 (from UniProt Q8BTI8 1-2703), in the assay with APEX2-SMNDC1^FL [1], the binding result is listed as “binds”.

B1: endogenous SMNDC1 (protein, UniProt Q8BGT7 1-238)
chain: MSEDLAKQLASYKAQLQQVEAALSGNGENEDLLKLKKDLQEVIELTKDLLSTQPSETLASSDSFASTQPTHSWKVGDKCMAVWSEDGQCYEAEIEEIDEENGTAAITFAVYGNAEVTPLLNLKPVEEGRKAKEDSGNKPMSKKEMIAQQREYKKKKALKKAQRIKELEQEREDQKVKWQQFNNRAYSKNKKGQVKRSIFASPESVTGKVGVGTCGIADKPMTQYQDTSKYNVRHLMPQ
As to B1, the binding result with APEX2-SMNDC1^FL [2] was “binds”; with APEX2-SMNDC1^FL [3], “no binding”; in the assay with APEX2-SMNDC1^FL [4], “binds”.

B2: APEX2-SMNDC1^FL (protein, UniProt O75940 1-238)
chain: MSEDLAKQLASYKAQLQQVEAALSGNGENEDLLKLKKDLQEVIELTKDLLSTQPSETLASSDSFASTQPTHSWKVGDKCMAVWSEDGQCYEAEIEEIDEENGTAAITFAGYGNAEVTPLLNLKPVEEGRKAKEDSGNKPMSKKEMIAQQREYKKKKALKKAQRIKELEQEREDQKVKWQQFNNRAYSKNKKGQVKRSIFASPESVTGKVGVGTCGIADKPMTQYQDTSKYNVRHLMPQ
Turning to B2, the binding entry with APEX2-SMNDC1^FL [3] was “no binding”; with APEX2-SMNDC1^FL [4] it was “binds”.

B3: splicing factor SFPQ (protein, UniProt Q8VIJ6 1-699)
chain: MSRDRFRSRGGGGGGFHRRGGGGGRGGLHDFRSPPPGMGLNQNRGPMGPGPGGPKPPLPPPPPHQQQQQPPPQQPPPQQPPPHQQPPPHQPPHQQPPPPPQESKPVVPQGPGSAPGVSSAPPPAVSAPPANPPTTGAPPGPGPTPTPPPAVPSTAPGPPPPSTPSSGVSTTPPQTGGPPPPPAGGAGPGPKPGPGPGGPKGGKMPGGPKPGGGPGMGAPGGHPKPPHRGGGEPRGGRQHHAPYHQQHHQGPPPGGPGPRTEEKISDSEGFKANLSLLRRPGEKTYTQRCRLFVGNLPADITEDEFKRLFAKYGEPGEVFINKGKGFGFIKLESRALAEIAKAELDDTPMRGRQLRVRFATHAAALSVRNLSPYVSNELLEEAFSQFGPIERAVVIVDDRGRSTGKGIVEFASKPAARKAFERCSEGVFLLTTTPRPVIVEPLEQLDDEDGLPEKLAQKNPMYQKERETPPRFAQHGTFEYEYSQRWKSLDEMEKQQREQVEKNMKDAKDKLESEMEDAYHEHQANLLRQDLMRRQEELRRMEELHSQEMQKRKEMQLRQEEERRRREEEMMIRQREMEEQMRRQREESYSRMGYMDPRERDMRMGGGGTMNMGDPYGSGGQKFPPLGGGGGIGYEANPGVPPATMSGSMMGSDMRTERFGQGGAGPVGGQGPRGMGPGTPAGYGRGREEYEGPNKKPRF
modifications: sDMA-modified (sites not given)
For B3, the figures for the binding result with APEX2-SMNDC1^FL [3] and in the assay with APEX2-SMNDC1^FL [4] were “no binding” and “binds”, respectively.
